According to publication PMC8184991:
These are yes or no findings as the source states them, for the method shown. In cells and extracts the contact can be indirect. Some binding calls cover weakened binding; strength is not graded here.

Target: T1, Zinc-finger of the cerebellum 2 (Zic2) (human (endogenous in DLD-1, SW480, HCT116)), O95409
T1 chain: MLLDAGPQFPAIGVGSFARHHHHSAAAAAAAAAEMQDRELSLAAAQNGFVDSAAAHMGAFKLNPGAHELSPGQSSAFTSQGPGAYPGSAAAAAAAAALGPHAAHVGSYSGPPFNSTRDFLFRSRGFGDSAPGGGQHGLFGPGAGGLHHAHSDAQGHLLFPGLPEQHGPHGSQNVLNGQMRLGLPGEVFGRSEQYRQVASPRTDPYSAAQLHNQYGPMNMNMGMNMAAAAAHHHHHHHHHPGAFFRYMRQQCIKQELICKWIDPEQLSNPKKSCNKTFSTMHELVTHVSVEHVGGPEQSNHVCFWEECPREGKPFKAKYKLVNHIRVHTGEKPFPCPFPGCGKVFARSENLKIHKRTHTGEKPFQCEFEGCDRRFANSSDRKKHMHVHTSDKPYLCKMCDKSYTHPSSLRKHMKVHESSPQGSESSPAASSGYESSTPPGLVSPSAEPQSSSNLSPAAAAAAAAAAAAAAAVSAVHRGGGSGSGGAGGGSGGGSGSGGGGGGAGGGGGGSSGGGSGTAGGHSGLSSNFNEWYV
Experiment: co-IP; lysates of DLD-1, SW480 and HCT116 cells in Triton X-100 lysis buffer (150 mM NaCl, 0.5% NP-40, Tris-HCl pH 8.0, glycerol) with phosphatase and protease inhibitors; Thermo Scientific Pierce Co-IP kit; detected by western blot
Conditions: remark: other sources report otherwise

binding: binds
B1: β-catenin, P35222 1-781 (protein)
chain: MATQADLMELDMAMEPDRKAAVSHWQQQSYLDSGIHSGATTTAPSLSGKGNPEEEDVDTSQVLYEWEQGFSQSFTQEQVADIDGQYAMTRAQRVRAAMFPETLDEGMQIPSTQFDAAHPTNVQRLAEPSQMLKHAVVNLINYQDDAELATRAIPELTKLLNDEDQVVVNKAAVMVHQLSKKEASRHAIMRSPQMVSAIVRTMQNTNDVETARCTAGTLHNLSHHREGLLAIFKSGGIPALVKMLGSPVDSVLFYAITTLHNLLLHQEGAKMAVRLAGGLQKMVALLNKTNVKFLAITTDCLQILAYGNQESKLIILASGGPQALVNIMRTYTYEKLLWTTSRVLKVLSVCSSNKPAIVEAGGMQALGLHLTDPSQRLVQNCLWTLRNLSDAATKQEGMEGLLGTLVQLLGSDDINVVTCAAGILSNLTCNNYKNKMMVCQVGGIEALVRTVLRAGDREDITEPAICALRHLTSRHQEAEMAQNAVRLHYGLPVVVKLLHPPSHWPLIKATVGLIRNLALCPANHAPLREQGAIPRLVQLLVRAHQDTQRRTSMGGTQQQFVEGVRMEEIVEGCTGALHILARDVHNRIVIRGLNTIPLFVQLLYSPIENIQRVAAGVLCELAQDKEAAEAIEAEGATAPLTELLHSRNEGVATYAAAVLFRMSEDKPQDYKKRLSVELTSSLFRTEPMAWNETADLGLDIGAQGEPLGYRQDDPSYRSFHSGGYGQDALGMDPMMEHEMGGHHPGADYPVDGLPDLGHAQDLMDGLPPGDSNQLAWFDTDL
